Measured values as given in the supplement of paper PMC4604168 (melanoma cell lines).
The list shows a part of the results. Single values are uncertain, as repeats are few or missing.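 The apoptosis fraction was the count of cleaved-PARP antibody-stained nuclei relative to all DNA-stained nuclei, imaged in 1,536-well plates. Screening doses were set so most cells survived, and baseline and induced cleaved-PARP levels vary greatly across cell lines.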

Assays:
Assay in all cases: cleaved PARP positive nuclei fraction relative to DMSO control; melanoma cells; higher = more apoptosis
Details in all cases: library dose: low library concentration; 72 h
501Mel = test system: 501Mel
A101D = test system: A101D
A2058 = test system: A2058
A375 = test system: A375
C32 = test system: C32
CBRC008 = test system: CBRC008 (line from a melanoma biopsy)
CBRC014 = test system: CBRC014 (line from a melanoma biopsy)
CBRC016 = test system: CBRC016 (line from a melanoma biopsy)
CBRC017 = test system: CBRC017 (line from a melanoma biopsy)
CBRC034 = test system: CBRC034 (line from a melanoma biopsy)
COLO792 = test system: COLO792
COLO800 = test system: COLO800
COLO829 = test system: COLO829
G361 = test system: G361
IPC-298 = test system: IPC-298
IST-MEL1 = test system: IST-MEL1
LB2518-MEL = test system: LB2518-MEL
LOXIMVI = test system: LOXIMVI
MEL-HO = test system: MEL-HO

CC[C@]1(O)C[C@H]2CN(CCc3c([nH]c4ccccc34)[C@@](C(=O)OC)(c3cc4c(cc3OC)N(C=O)[C@H]3[C@@](O)(C(=O)OC)[C@H](OC(C)=O)[C@]5(CC)C=CCN6CC[C@]43[C@@H]65)C2)C1 [vincristine] + CC(=O)c1c(C)c2cnc(Nc3ccc(N4CCNCC4)cn3)nc2n(C2CCCC2)c1=O [palbociclib] (first compound 0.0001 µM, partner dose 0.04 µM)
cleaved PARP positive nuclei fraction (501Mel): 101% | cleaved PARP positive nuclei fraction (A101D): 139% | cleaved PARP positive nuclei fraction (A2058): 2700% | cleaved PARP positive nuclei fraction (A375): 333% | cleaved PARP positive nuclei fraction (C32): 118% | cleaved PARP positive nuclei fraction (CBRC008): 169% | cleaved PARP positive nuclei fraction (CBRC014): 113% | cleaved PARP positive nuclei fraction (CBRC016): 71.2% | cleaved PARP positive nuclei fraction (CBRC017): 159% | cleaved PARP positive nuclei fraction (CBRC034): 62.1% | cleaved PARP positive nuclei fraction (COLO792): 77.3% | cleaved PARP positive nuclei fraction (COLO800): 45.9% | cleaved PARP positive nuclei fraction (COLO829): 151% | cleaved PARP positive nuclei fraction (G361): 145% | cleaved PARP positive nuclei fraction (IPC-298): 101% | cleaved PARP positive nuclei fraction (IST-MEL1): 130% | cleaved PARP positive nuclei fraction (LB2518-MEL): 121% | cleaved PARP positive nuclei fraction (LOXIMVI): 210% | cleaved PARP positive nuclei fraction (MEL-HO): 69.4%

Cc1cc(Nc2cc(N3CCN(C)CC3)nc(Sc3ccc(NC(=O)C4CC4)cc3)n2)n[nH]1 [Tozasertib] + CC1(C)CCC(c2ccc(Cl)cc2)=C(CN2CCN(c3ccc(C(=O)NS(=O)(=O)c4ccc(N[C@H](CCN5CCOCC5)CSc5ccccc5)c(S(=O)(=O)C(F)(F)F)c4)cc3)CC2)C1 [ABT263] (first compound 0.006 µM, partner dose 0.4 µM)
cleaved PARP positive nuclei fraction (501Mel): 219% | cleaved PARP positive nuclei fraction (A101D): 107% | cleaved PARP positive nuclei fraction (A2058): 49.7% | cleaved PARP positive nuclei fraction (A375): 238% | cleaved PARP positive nuclei fraction (C32): 881% | cleaved PARP positive nuclei fraction (CBRC008): 258% | cleaved PARP positive nuclei fraction (CBRC014): 929% | cleaved PARP positive nuclei fraction (CBRC016): 170% | cleaved PARP positive nuclei fraction (CBRC017): 366% | cleaved PARP positive nuclei fraction (CBRC034): 70.7% | cleaved PARP positive nuclei fraction (COLO792): 297% | cleaved PARP positive nuclei fraction (COLO800): 115% | cleaved PARP positive nuclei fraction (COLO829): 145% | cleaved PARP positive nuclei fraction (G361): 294% | cleaved PARP positive nuclei fraction (IPC-298): 242% | cleaved PARP positive nuclei fraction (IST-MEL1): 151% | cleaved PARP positive nuclei fraction (LB2518-MEL): 155% | cleaved PARP positive nuclei fraction (LOXIMVI): 144% | cleaved PARP positive nuclei fraction (MEL-HO): 99.7%

O=c1[nH]nc(Sc2ncc([N+](=O)[O-])s2)n1-c1ccc2c(c1)OCCO2 + CCCS(=O)(=O)Nc1ccc(F)c(C(=O)c2c[nH]c3ncc(Cl)cc23)c1F [PLX4720] (first compound 0.2 µM, partner dose 0.08 µM)
cleaved PARP positive nuclei fraction (501Mel): 117% | cleaved PARP positive nuclei fraction (A101D): 102% | cleaved PARP positive nuclei fraction (A2058): 79.8% | cleaved PARP positive nuclei fraction (A375): 40% | cleaved PARP positive nuclei fraction (C32): 105% | cleaved PARP positive nuclei fraction (CBRC008): 154% | cleaved PARP positive nuclei fraction (CBRC014): 118% | cleaved PARP positive nuclei fraction (CBRC016): 121% | cleaved PARP positive nuclei fraction (CBRC017): 101% | cleaved PARP positive nuclei fraction (CBRC034): 30.2% | cleaved PARP positive nuclei fraction (COLO792): 104% | cleaved PARP positive nuclei fraction (COLO800): 38.6% | cleaved PARP positive nuclei fraction (COLO829): 76.4% | cleaved PARP positive nuclei fraction (G361): 191% | cleaved PARP positive nuclei fraction (IPC-298): 43.7% | cleaved PARP positive nuclei fraction (IST-MEL1): 128% | cleaved PARP positive nuclei fraction (LB2518-MEL): 104% | cleaved PARP positive nuclei fraction (LOXIMVI): 39.8% | cleaved PARP positive nuclei fraction (MEL-HO): 67.3%

N#CC[C@H](C1CCCC1)n1cc(-c2ncnc3[nH]ccc23)cn1 [ruxolitinib] + C#Cc1cccc(Nc2ncnc3cc(OCCOC)c(OCCOC)cc23)c1 [erlotinib] (first compound 1 µM, partner dose 0.8 µM)
cleaved PARP positive nuclei fraction (501Mel): 44.9% | cleaved PARP positive nuclei fraction (A101D): 100% | cleaved PARP positive nuclei fraction (A2058): 633% | cleaved PARP positive nuclei fraction (A375): 352% | cleaved PARP positive nuclei fraction (C32): 75.4% | cleaved PARP positive nuclei fraction (CBRC008): 118% | cleaved PARP positive nuclei fraction (CBRC014): 95.4% | cleaved PARP positive nuclei fraction (CBRC016): 225% | cleaved PARP positive nuclei fraction (CBRC017): 114% | cleaved PARP positive nuclei fraction (CBRC034): 161% | cleaved PARP positive nuclei fraction (COLO792): 155% | cleaved PARP positive nuclei fraction (COLO800): 39% | cleaved PARP positive nuclei fraction (COLO829): 91.6% | cleaved PARP positive nuclei fraction (G361): 150% | cleaved PARP positive nuclei fraction (IPC-298): 85.3% | cleaved PARP positive nuclei fraction (IST-MEL1): 137% | cleaved PARP positive nuclei fraction (LB2518-MEL): 129% | cleaved PARP positive nuclei fraction (LOXIMVI): 85.1% | cleaved PARP positive nuclei fraction (MEL-HO): 84.4%

CCCCCCCCCCCCCCCCCCOP(=O)([O-])OC1CC[N+](C)(C)CC1 [Perifosine] + Cn1c(Nc2ccc(C(F)(F)F)cc2)nc2cc(Oc3ccnc(-c4ncc(C(F)(F)F)[nH]4)c3)ccc21 [CHIR265] (first compound 0.4 µM, partner dose 0.08 µM)
cleaved PARP positive nuclei fraction (501Mel): 260% | cleaved PARP positive nuclei fraction (A101D): 53.7% | cleaved PARP positive nuclei fraction (A2058): 166% | cleaved PARP positive nuclei fraction (A375): 295% | cleaved PARP positive nuclei fraction (C32): 90.4% | cleaved PARP positive nuclei fraction (CBRC008): 57.1% | cleaved PARP positive nuclei fraction (CBRC014): 108% | cleaved PARP positive nuclei fraction (CBRC016): 119% | cleaved PARP positive nuclei fraction (CBRC017): 87.9% | cleaved PARP positive nuclei fraction (CBRC034): 54.7% | cleaved PARP positive nuclei fraction (COLO792): 162% | cleaved PARP positive nuclei fraction (COLO800): 43% | cleaved PARP positive nuclei fraction (COLO829): 113% | cleaved PARP positive nuclei fraction (G361): 205% | cleaved PARP positive nuclei fraction (IPC-298): 77.6% | cleaved PARP positive nuclei fraction (IST-MEL1): 68.7% | cleaved PARP positive nuclei fraction (LB2518-MEL): 511% | cleaved PARP positive nuclei fraction (LOXIMVI): 113% | cleaved PARP positive nuclei fraction (MEL-HO): 171%

O=c1[nH]nc(Sc2ncc([N+](=O)[O-])s2)n1-c1ccc2c(c1)OCCO2 + Clc1ccc(Nc2nnc(Cc3ccncc3)c3ccccc23)cc1 [vatalanib] (first compound 0.2 µM, partner dose 2 µM)
cleaved PARP positive nuclei fraction (501Mel): 241% | cleaved PARP positive nuclei fraction (A101D): 45.5% | cleaved PARP positive nuclei fraction (A2058): 282% | cleaved PARP positive nuclei fraction (A375): 97.2% | cleaved PARP positive nuclei fraction (C32): 253% | cleaved PARP positive nuclei fraction (CBRC008): 42.1% | cleaved PARP positive nuclei fraction (CBRC014): 106% | cleaved PARP positive nuclei fraction (CBRC016): 118% | cleaved PARP positive nuclei fraction (CBRC017): 301% | cleaved PARP positive nuclei fraction (CBRC034): 61.9% | cleaved PARP positive nuclei fraction (COLO792): 106% | cleaved PARP positive nuclei fraction (COLO800): 82.8% | cleaved PARP positive nuclei fraction (COLO829): 61.6% | cleaved PARP positive nuclei fraction (G361): 103% | cleaved PARP positive nuclei fraction (IPC-298): 97.3% | cleaved PARP positive nuclei fraction (IST-MEL1): 63.2% | cleaved PARP positive nuclei fraction (LB2518-MEL): 249% | cleaved PARP positive nuclei fraction (LOXIMVI): 189% | cleaved PARP positive nuclei fraction (MEL-HO): 119%

Cc1cc(Nc2cc(N3CCN(C)CC3)nc(Sc3ccc(NC(=O)C4CC4)cc3)n2)n[nH]1 [Tozasertib] + CN1CCN(c2ccc3nc(-c4c(N)c5c(F)cccc5[nH]c4=O)[nH]c3c2)CC1 [Dovitinib] (first compound 0.006 µM, partner dose 0.1 µM)
cleaved PARP positive nuclei fraction (501Mel): 189% | cleaved PARP positive nuclei fraction (A101D): 89.8% | cleaved PARP positive nuclei fraction (A2058): 68.2% | cleaved PARP positive nuclei fraction (A375): 117% | cleaved PARP positive nuclei fraction (C32): 158% | cleaved PARP positive nuclei fraction (CBRC008): 53.4% | cleaved PARP positive nuclei fraction (CBRC014): 78.8% | cleaved PARP positive nuclei fraction (CBRC016): 69.6% | cleaved PARP positive nuclei fraction (CBRC017): 78.1% | cleaved PARP positive nuclei fraction (CBRC034): 65% | cleaved PARP positive nuclei fraction (COLO792): 131% | cleaved PARP positive nuclei fraction (COLO800): 174% | cleaved PARP positive nuclei fraction (COLO829): 127% | cleaved PARP positive nuclei fraction (G361): 136% | cleaved PARP positive nuclei fraction (IPC-298): 45.1% | cleaved PARP positive nuclei fraction (IST-MEL1): 63.2% | cleaved PARP positive nuclei fraction (LB2518-MEL): 130% | cleaved PARP positive nuclei fraction (LOXIMVI): 127% | cleaved PARP positive nuclei fraction (MEL-HO): 85.1%

O=C(/C=C/c1cccnc1)NCCCCC1CCN(C(=O)c2ccccc2)CC1 + COCC[n+]1c2c(n(Cc3cnccn3)c1C)C(=O)c1ccccc1C2=O [YM155] (first compound 0.01 µM, partner dose 0.0004 µM)
cleaved PARP positive nuclei fraction (501Mel): 74.3% | cleaved PARP positive nuclei fraction (A101D): 65.7% | cleaved PARP positive nuclei fraction (A2058): 70.2% | cleaved PARP positive nuclei fraction (A375): 152% | cleaved PARP positive nuclei fraction (C32): 83.2% | cleaved PARP positive nuclei fraction (CBRC008): 2790% | cleaved PARP positive nuclei fraction (CBRC014): 99.8% | cleaved PARP positive nuclei fraction (CBRC016): 928% | cleaved PARP positive nuclei fraction (CBRC017): 698% | cleaved PARP positive nuclei fraction (CBRC034): 411% | cleaved PARP positive nuclei fraction (COLO792): 394% | cleaved PARP positive nuclei fraction (COLO800): 272% | cleaved PARP positive nuclei fraction (COLO829): 155% | cleaved PARP positive nuclei fraction (G361): 3800% | cleaved PARP positive nuclei fraction (IPC-298): 155% | cleaved PARP positive nuclei fraction (IST-MEL1): 82.1% | cleaved PARP positive nuclei fraction (LB2518-MEL): 130% | cleaved PARP positive nuclei fraction (LOXIMVI): 66% | cleaved PARP positive nuclei fraction (MEL-HO): 498%
